Assay results: PMC12003641
These are yes or no findings as the source states them, for the method shown. In cells and extracts the contact can be indirect. A yes stands for co-enrichment or nearness to the bait. Other partners may have been found. One block for each binder: values may come before it.

By UniProt entry, the sequences of proteins in these tests, tags left out.
UniProt P40337: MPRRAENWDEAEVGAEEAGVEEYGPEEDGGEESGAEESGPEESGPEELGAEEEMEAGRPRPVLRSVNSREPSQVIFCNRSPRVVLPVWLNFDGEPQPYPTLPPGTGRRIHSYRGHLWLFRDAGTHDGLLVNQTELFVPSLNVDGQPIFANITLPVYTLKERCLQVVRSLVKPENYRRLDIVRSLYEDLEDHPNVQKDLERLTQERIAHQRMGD

Tests used:
VHL-Flag-BirA [1] = molecular target: VHL-Flag-BirA (UniProt P40337); test: proximity labelling; BioID in HEK293A cells expressing VHL-Flag-BirA; 10 µM MG132 or DMSO 4 h, then 50 µM biotin 1 h; streptavidin beads, SDS-PAGE, in-gel trypsin digest, LC-MS
VHL-Flag-BirA [2] = molecular target: VHL-Flag-BirA (UniProt P40337); test: proximity labelling; BioID in HEK293A cells transfected with VHL-Flag-BirA; 10 µM MG132 or vehicle 4 h, 50 µM biotin 1 h; streptavidin pull-down of biotinylated proteins, immunoblot for pRb
[3] = molecular target: VHL-Flag-BirA expressed in RCC4 cells (UniProt P40337); test: proximity labelling; BioID in RCC4 cells with exogenous VHL-BirA, with or without MG132; biotinylation of endogenous pRb

binding (VHL-Flag-BirA [1]): binds
binding (VHL-Flag-BirA [2]): binds
B1: retinoblastoma protein (pRb), endogenous in HEK293A (protein, UniProt P06400 1-928)
chain: MPPKTPRKTAATAAAAAAEPPAPPPPPPPEEDPEQDSGPEDLPLVRLEFEETEEPDFTALCQKLKIPDHVRERAWLTWEKVSSVDGVLGGYIQKKKELWGICIFIAAVDLDEMSFTFTELQKNIEISVHKFFNLLKEIDTSTKVDNAMSRLLKKYDVLFALFSKLERTCELIYLTQPSSSISTEINSALVLKVSWITFLLAKGEVLQMEDDLVISFQLMLCVLDYFIKLSPPMLLKEPYKTAVIPINGSPRTPRRGQNRSARIAKQLENDTRIIEVLCKEHECNIDEVKNVYFKNFIPFMNSLGLVTSNGLPEVENLSKRYEEIYLKNKDLDARLFLDHDKTLQTDSIDSFETQRTPRKSNLDEEVNVIPPHTPVRTVMNTIQQLMMILNSASDQPSENLISYFNNCTVNPKESILKRVKDIGYIFKEKFAKAVGQGCVEIGSQRYKLGVRLYYRVMESMLKSEEERLSIQNFSKLLNDNIFHMSLLACALEVVMATYSRSTSQNLDSGTDLSFPWILNVLNLKAFDFYKVIESFIKAEGNLTREMIKHLERCEHRIMESLAWLSDSPLFDLIKQSKDREGPTDHLESACPLNLPLQNNHTAADMYLSPVRSPKKKGSTTRVNSTANAETQATSAFQTQKPLKSTSLSLFYKKVYRLAYLRLNTLCERLLSEHPELEHIIWTLFQHTLQNEYELMRDRHLDQIMMCSMYGICKVKNIDLKFKIIVTAYKDLPHAVQETFKRVLIKEEEYDSIIVFYNSVFMQRLKTNILQYASTRPPTLSPIPHIPRSPYKFPSSPLRIPGGNIYISPLKSPYKISEGLPTPTKMTPRSRILVSIGESFGTSEKFQKINQMVCNSDRVLKRSAEGSNPPKPLKKLRFDIEGSDEADGSKHLPGESKFQQKLAEMTSTRTRMQKQKMNDSMDTSNKEEK

binding [3]: binds
B2: retinoblastoma protein (pRb), endogenous in RCC4 (protein, UniProt P06400 1-928)
chain: B1 chain
